# Laboratory results reported in paper PMC10163288.
# The other results are listed elsewhere or left out.
# B1: il10ra_site1_sap_14_mot_HHH_b1_05357_000000034_0001_23_39_H_._HHH_b2_06277_0001_0000100001_0000001_0_0001 (protein)
# chain: PVNEVIQRLVRLAFREGDPELLRALWKLVKRYAEGDPEAEELLEEVAELLKKDEEEAKRLLKELG
# B2: il10ra_site1_sap_27_mot_0eddeacbb14b769e73e254714f31e2f9_0001_af2_000000203_0001_37_51_H_._HHH_b1_05307_af2_0001_0000800012_0000001_0_0001_af2pred_0001 (protein)
# chain: SSSSSSEEVEERIKELLEQIEEAKNAHERFELAQEVLELAIEANDPELQRRVAEALAEIFSSSSS
# B3: il10ra_site1_sap_23_mot_3af0db62db2b275566dae2e03bf881fa_0001_000000003_0001_37_50_H_._HHH_b1_03614_af2_0001_0000100001_0000001_0_0001 (protein)
# chain: SSSSDEEEREEAEELLEQAKRIEDPEERLQVLARAAALATRANDHELLEEIQRLMVEALHSSSSS
# B4: il10ra_site1_sap_18_mot_HHH_b2_00277_af2_000000172_0001_1_17_H_._HHH_b2_02521_0001_0003200045_0000002_0_0001_af2pred_0001 (protein)
# chain: SSSSSEEEERLRLALRFAKRLLEDGDPEAAEFLVRAAIELARDLGDEETVQEAEELLEEINSSSS
# B5: il10ra_site1_normal_mot_HHH_b2_03220_af2_000000223_0001_23_40_H_._HHH_b2_06947_0001_0000100002_0000002_0 (protein)
# chain: SSSSDENEEVWELIREALELLANGNPEEAKEVLEEAERLAEEANNFAARFAIRLLLREIDSSSSS
# B6: il10ra_site1_normal_mot_HHH_b2_00277_af2_000000172_0001_1_17_H_._HHH_b2_06089_0001_0000100010_0000001_0_af2pred_0001 (protein)
# chain: SSSSDEEVRREVREILEEAKHIEDKEKLTYLLLRAFALASQAGDEELLREVKEVAQKLAESSSSS
# B7: il10ra_site1_sap_26_mot_HHH_b2_06602_000000226_0001_1_16_H_._HHH_b1_07649_af2_0001_0000100001_0000002_0_0001 (protein)
# chain: SSSSDVEEEVKELLKEAEELREEGDPEEAAKVLQEAVHLAYQAQDPELLHLVWEVVKRLGTSSSS
# B8: il10ra_site1_sap_11_mot_HHH_b1_00103_000000293_0001_1_15_H_._HHH_b2_04504_0001_0000400018_0000001_1_0001 (protein)
# chain: SSSSSDEEEEEFKELRREAEEAKNADERYEVIKRLIEIASELNDEELERLVHEIIHRLLRSSSSS
# B9: il10ra_site1_normal_mot_HHH_b2_00475_000000107_0001_44_57_H_._HHH_b1_07089_af2_0001_0000300033_0000001_0_af2pred_0001 (protein)
# chain: SSSSDDEKVVRLLFEALELIAQGNLEEAEELLKEAEKIARENNDEELERKVEQALKLVRNESSSS
# B10: il10ra_site1_sap_18_mot_1cde5897893f3d1588f92be3b001cdf2_0001_af2_000000130_0001_54_65_H_._HHH_b1_03640_af2_0001_0001000026_0000001_0_0001 (protein)
# chain: SSSSSSVEEIKKLIEEIKELVEEGNEEEAKELTEQAKEIAEELGDQLAARTVEYFLRLQISSSSS
# B11: il10ra_site1_sap_18_mot_HHH_b1_06816_000000239_0001_1_19_H_._HHH_b1_04212_0001_0000100009_0000001_0_0001_af2pred_0001 (protein)
# chain: SSSSSDEDRQRLLKLLLRAKRLGVEEAREVVHKALLLLSEGRLSPEELEKLEEEAERLLGSSSSS
# B12: il10ra_site1_sap_18_mot_HHH_b2_00479_000000091_0001_1_12_H_._HHH_b2_06355_0001_0000300025_0000001_0_0001 (protein)
# chain: TELMTRILKKILERDPELAKRAVEQQLRLQGVPPEEIEELQEQLEELAKEDPEEAARFVAEVIIR
# B13: il10ra_site1_sap_17_mot_HHH_b2_05972_af2_000000208_0001_1_16_H_._HHH_b1_01803_0001_0000500042_0000001_0_0001 (protein)
# chain: SSSSDRRREVYELLRRAVELDHEGDKEEAEEVLREAEELAREANDPLFLRQVEFLKRILEGSSSS
# B14: il10ra_site1_normal_mot_HHH_b1_05056_000000217_0001_1_20_H_._HHH_b1_04083_0001_0000400040_0000002_0 (protein)
# chain: SSSSDEEEYRREVEELLEEAEHIPDLREATRLLQEAVRLAYELQDPELLQLIWEVVKRVASSSSS
# B15: il10ra_site1_sap_25_mot_39ab2cb694c8b9c1dc7e65c0d672c93e_0001_000000036_0001_53_65_H_._HHH_b1_05662_af2_0001_0000300011_0000002_0_0001_af2pred_0001 (protein)
# chain: SSSSSEEFEELERRIRELLEEGDLHEAAALVVRLYAVANKLGDPELEEIVKELARIIAELLSSSS
# B16: il10ra_site1_sap_22_mot_HHH_b2_07873_af2_000000172_0001_1_19_H_._HHH_b1_02227_af2_0001_0000300012_0000002_0_0001_af2pred_0001 (protein)
# chain: SSSSNAAEHLVELAIEAAKLALEAGDPELARRALEIAELLAQQANNPELEEEVRELLEELSSSSS
# B17: il10ra_site1_normal_mot_HHH_b2_00273_000000062_0001_23_39_H_._HHH_b2_06634_af2_0001_0000100003_0000001_0 (protein)
# chain: SSSSDEEEEEVRELLERAEELIERGNPEEALRLLMEAIRVAFRGSDPELIEAIWKVARKLLSSSS
# B18: il10ra_site1_normal_mot_HHH_b1_02997_000000220_0001_39_52_H_._HHH_b1_01787_0001_0000100005_0000001_0 (protein)
# chain: SSSSSSSEELFELSRLVAELLFEGNEEEARRVIEEAKELAEEAGNLNFLWNIEYLERQVNSSSSS
# B19: il10ra_site1_normal_mot_HHH_b2_07521_000000141_0001_20_37_H_._HHH_b1_01333_0001_0000300010_0000001_1_af2pred_0001 (protein)
# chain: SSSSSDEEARRAIRLSIKAAKQIDDPERARLTLRDALASARFLGDEELQEEIERLLEEVNSSSSS
# Target: il10ra, Q13651
# Test: yeast display titration
row,Binder,apparent Kd
1,B1,inactive: no binding seen
2,B2,inactive: no binding seen
3,B3,inactive: no binding seen
4,B4,inactive: no binding seen
5,B5,inactive: no binding seen
6,B6,inactive: no binding seen
7,B7,inactive: no binding seen
8,B8,inactive: no binding seen
9,B9,inactive: no binding seen
10,B10,inactive: no binding seen
11,B11,inactive: no binding seen
12,B12,inactive: no binding seen
13,B13,inactive: no binding seen
14,B14,inactive: no binding seen
15,B15,inactive: no binding seen
16,B16,inactive: no binding seen
17,B17,inactive: no binding seen
18,B18,inactive: no binding seen
19,B19,inactive: no binding seen

# Looked up one by one from the entries so far (2):
row,Binder,apparent Kd
11,B11,inactive: no binding seen
15,B15,inactive: no binding seen
